For part of these data: Negatives hold for the conditions tested. For part of these data: Protein sequences can lack the tags named with them. For part of these data: The direction of at least one scale is not stated here.
Tests used:
VEGF165 (Homo sapiens) [1] = experiment: EMSA; conditions: DNA 200 fmol annealed to RNA 100 fmol; purified recombinant protein; protein details: R&D Systems or USB; label: 32P; DNA:RNA hybrid; variant of RNA132; counted as no binding
[2] = molecular target: bovine serum albumin (BSA) (UniProt P02769); experiment: competition with a labelled probe; conditions: 10 fmol; no phase transition at 40 min; purified native protein; dose not given here
endocrine gland VEGF = molecular target: T1, endocrine gland VEGF (UniProt P58294); experiment: competition with a labelled probe; conditions: 10 fmol; no phase transition at 40 min; purified recombinant protein; protein details: R&D Systems or USB; dose not given here
T1 sequence (looked up, limits assumed): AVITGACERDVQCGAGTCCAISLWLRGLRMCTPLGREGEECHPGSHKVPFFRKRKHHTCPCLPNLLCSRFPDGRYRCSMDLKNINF

Chains of the proteins cited; added tags and fusions are not shown. Chains listed by the source or under a name are the forms on record and can include a tag or linker. Residues count along the entry.
UniProt P02769, 25-607: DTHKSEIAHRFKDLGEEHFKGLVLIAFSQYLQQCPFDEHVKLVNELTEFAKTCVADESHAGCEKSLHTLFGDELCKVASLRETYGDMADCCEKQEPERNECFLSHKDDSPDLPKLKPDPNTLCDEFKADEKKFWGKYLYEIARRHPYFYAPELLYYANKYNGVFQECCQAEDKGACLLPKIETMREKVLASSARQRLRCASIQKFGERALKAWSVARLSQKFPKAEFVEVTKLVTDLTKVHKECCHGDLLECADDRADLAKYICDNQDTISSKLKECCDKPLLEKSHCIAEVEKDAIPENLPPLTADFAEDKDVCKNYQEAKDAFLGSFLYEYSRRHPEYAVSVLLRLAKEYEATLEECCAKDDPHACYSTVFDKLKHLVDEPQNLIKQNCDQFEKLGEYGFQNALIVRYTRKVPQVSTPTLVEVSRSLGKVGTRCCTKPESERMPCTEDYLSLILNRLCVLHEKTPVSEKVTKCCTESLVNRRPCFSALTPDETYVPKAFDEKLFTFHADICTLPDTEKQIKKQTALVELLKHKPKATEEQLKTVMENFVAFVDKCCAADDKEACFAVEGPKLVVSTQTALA
VEGF121 (Homo sapiens), one chain, as listed by the source: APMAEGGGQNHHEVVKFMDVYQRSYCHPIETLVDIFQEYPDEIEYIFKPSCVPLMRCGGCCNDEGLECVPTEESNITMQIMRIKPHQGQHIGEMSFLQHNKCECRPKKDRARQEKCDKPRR
VEGF165 (Homo sapiens), one chain, as listed by the source: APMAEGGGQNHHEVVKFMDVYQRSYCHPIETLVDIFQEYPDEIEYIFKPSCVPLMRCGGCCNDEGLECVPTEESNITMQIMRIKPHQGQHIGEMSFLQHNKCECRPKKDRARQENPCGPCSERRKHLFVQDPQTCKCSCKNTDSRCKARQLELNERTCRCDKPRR
VEGF/PlGF heterodimer (Homo sapiens), one chain, as listed by the source, chain 2 of 2: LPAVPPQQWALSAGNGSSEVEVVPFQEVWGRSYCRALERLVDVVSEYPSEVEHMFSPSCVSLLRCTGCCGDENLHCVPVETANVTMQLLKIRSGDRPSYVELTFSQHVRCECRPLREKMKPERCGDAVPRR

[3] = system: VEGF/PlGF heterodimer (Homo sapiens); experiment: competition with a labelled probe; conditions: 10 fmol; no phase transition at 40 min; purified recombinant protein; protein details: R&D Systems or USB; dose not given here
VEGF121 (Homo sapiens) = experiment: competition with a labelled probe; conditions: 10 fmol; no phase transition at 40 min; purified recombinant protein; protein details: R&D Systems or USB; dose not given here
VEGF165 (Homo sapiens) [4] = experiment: competition with a labelled probe; conditions: reverses RVV-X inhibition at 3-30 fmol; coagulation complete within 40 min; purified recombinant protein; protein details: R&D Systems or USB; dose not given here

Row | Sequence | binding signal (% of RNA132 alone) (VEGF165 (Homo sapiens) [1]) | functional effect of the aptamer [2] | functional effect of the aptamer (endocrine gland VEGF) | functional effect of the aptamer [3] | functional effect of the aptamer (VEGF121 (Homo sapiens)) | functional effect of the aptamer (VEGF165 (Homo sapiens) [4])
1 | GGGAGGGAAUCAGUGAAUGCUUAUACAUCCCUCCUUGAGCAGUCGAUUAGUUUCGACAGGAGGCUCAC [RNA132 annealed with DNA I (complement of 1-68)] | 0 |  |  |  |  | 
2 | GGGAGGGAAUCAGUGAAUGCUUAUACAUCCCUCCUUGAGCAGUCGAUUAGUUUCGACAGGAGGCUCAC [RNA132] |  | not active | not active | not active | not active | active

Reference: US8324357
